Experimental data from the supplement of paper PMC10849652.
Some of the results follow.

Sequences of proteins named here, by UniProt entry; tags and fusion partners are left off. A change or cut given only in a name is not applied to a line headed by its entry.
UniProt Q96KF7: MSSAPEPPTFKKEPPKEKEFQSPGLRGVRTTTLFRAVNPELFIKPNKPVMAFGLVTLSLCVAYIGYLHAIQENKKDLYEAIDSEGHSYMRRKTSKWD
UniProt Q9UQE7: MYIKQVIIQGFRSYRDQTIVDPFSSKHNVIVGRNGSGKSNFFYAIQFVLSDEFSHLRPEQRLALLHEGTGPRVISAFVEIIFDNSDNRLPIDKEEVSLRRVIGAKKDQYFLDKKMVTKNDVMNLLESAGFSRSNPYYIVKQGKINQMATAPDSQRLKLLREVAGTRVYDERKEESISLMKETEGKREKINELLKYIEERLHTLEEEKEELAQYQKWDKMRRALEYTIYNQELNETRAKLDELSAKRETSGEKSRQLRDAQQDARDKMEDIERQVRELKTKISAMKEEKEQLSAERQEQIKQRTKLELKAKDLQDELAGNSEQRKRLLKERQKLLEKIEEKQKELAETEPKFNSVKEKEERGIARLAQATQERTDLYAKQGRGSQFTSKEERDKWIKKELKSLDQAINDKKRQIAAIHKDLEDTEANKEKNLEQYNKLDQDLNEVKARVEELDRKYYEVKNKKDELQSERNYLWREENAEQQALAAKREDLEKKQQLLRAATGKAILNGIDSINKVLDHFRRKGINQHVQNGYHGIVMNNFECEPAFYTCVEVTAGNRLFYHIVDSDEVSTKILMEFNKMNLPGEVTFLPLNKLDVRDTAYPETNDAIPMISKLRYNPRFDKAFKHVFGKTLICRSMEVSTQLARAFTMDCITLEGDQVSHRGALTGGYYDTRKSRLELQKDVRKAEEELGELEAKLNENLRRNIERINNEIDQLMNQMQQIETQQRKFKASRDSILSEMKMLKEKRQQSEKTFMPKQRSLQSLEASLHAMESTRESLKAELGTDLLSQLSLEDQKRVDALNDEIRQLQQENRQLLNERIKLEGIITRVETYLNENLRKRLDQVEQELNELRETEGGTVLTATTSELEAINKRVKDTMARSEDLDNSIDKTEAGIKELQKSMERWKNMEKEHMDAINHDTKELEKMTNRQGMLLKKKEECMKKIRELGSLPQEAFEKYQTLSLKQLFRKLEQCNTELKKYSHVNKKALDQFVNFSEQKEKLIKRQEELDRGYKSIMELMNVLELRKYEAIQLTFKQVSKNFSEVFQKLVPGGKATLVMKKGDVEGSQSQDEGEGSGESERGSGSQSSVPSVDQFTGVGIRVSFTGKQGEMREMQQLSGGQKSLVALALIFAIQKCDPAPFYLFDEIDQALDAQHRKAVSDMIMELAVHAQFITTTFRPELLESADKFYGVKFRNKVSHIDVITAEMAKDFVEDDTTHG
UniProt O60906: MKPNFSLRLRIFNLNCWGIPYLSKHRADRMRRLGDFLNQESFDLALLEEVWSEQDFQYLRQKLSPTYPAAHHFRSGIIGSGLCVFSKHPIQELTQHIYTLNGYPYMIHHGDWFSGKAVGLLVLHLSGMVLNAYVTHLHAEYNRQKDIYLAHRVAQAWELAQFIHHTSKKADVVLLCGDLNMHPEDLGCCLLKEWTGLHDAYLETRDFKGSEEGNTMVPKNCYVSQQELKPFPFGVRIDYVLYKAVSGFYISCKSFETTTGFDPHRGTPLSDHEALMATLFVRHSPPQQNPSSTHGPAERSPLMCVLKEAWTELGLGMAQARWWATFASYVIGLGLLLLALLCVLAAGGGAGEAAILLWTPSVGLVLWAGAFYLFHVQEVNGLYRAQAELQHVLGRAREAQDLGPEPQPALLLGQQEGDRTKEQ
UniProt Q96CW6: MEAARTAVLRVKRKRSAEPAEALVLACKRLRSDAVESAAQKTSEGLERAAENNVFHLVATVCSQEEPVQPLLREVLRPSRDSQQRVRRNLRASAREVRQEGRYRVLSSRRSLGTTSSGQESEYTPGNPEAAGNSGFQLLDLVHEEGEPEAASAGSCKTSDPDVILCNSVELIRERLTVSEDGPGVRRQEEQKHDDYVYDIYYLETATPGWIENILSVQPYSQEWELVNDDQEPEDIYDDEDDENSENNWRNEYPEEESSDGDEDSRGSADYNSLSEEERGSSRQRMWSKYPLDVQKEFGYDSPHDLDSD
UniProt P52788: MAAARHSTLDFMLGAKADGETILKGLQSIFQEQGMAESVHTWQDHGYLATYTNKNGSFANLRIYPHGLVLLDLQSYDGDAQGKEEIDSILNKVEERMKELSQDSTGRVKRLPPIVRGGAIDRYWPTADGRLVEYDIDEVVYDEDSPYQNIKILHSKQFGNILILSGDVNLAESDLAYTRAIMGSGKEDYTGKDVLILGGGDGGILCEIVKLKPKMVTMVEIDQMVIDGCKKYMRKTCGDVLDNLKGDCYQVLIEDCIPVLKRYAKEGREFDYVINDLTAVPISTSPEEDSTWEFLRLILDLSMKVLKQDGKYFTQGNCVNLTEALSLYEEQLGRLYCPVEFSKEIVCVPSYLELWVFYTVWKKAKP
UniProt P00441, whole entry, looked up: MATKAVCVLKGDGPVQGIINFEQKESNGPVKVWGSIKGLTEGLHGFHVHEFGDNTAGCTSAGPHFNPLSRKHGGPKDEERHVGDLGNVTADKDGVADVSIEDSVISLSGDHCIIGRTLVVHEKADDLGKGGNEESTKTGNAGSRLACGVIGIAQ
UniProt Q8IY18: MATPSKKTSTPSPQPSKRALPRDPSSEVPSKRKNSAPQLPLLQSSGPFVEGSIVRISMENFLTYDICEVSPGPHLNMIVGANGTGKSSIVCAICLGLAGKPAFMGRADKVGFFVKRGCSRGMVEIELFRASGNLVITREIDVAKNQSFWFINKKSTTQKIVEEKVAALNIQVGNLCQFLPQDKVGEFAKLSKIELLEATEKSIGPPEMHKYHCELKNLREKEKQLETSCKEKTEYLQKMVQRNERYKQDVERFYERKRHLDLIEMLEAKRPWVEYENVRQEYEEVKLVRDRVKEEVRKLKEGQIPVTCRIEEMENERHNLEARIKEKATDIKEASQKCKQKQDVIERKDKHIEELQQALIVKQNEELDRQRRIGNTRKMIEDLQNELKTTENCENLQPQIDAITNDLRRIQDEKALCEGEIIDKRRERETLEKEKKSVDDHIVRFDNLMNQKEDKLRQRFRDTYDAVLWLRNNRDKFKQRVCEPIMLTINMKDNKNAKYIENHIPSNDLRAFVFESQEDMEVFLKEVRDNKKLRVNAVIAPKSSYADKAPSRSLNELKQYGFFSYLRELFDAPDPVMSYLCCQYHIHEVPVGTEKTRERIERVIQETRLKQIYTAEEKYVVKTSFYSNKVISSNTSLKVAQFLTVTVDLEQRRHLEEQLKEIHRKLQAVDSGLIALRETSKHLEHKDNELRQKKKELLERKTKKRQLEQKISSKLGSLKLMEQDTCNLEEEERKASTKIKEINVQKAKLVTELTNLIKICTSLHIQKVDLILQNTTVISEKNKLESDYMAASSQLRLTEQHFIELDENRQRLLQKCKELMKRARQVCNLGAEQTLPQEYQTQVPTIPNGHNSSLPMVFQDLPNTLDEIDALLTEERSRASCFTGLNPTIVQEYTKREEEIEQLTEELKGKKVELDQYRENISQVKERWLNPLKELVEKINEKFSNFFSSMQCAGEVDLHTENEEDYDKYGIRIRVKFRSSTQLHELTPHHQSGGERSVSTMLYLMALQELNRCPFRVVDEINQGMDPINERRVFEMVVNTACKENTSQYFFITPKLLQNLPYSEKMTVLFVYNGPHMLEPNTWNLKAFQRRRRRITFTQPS
UniProt O14745: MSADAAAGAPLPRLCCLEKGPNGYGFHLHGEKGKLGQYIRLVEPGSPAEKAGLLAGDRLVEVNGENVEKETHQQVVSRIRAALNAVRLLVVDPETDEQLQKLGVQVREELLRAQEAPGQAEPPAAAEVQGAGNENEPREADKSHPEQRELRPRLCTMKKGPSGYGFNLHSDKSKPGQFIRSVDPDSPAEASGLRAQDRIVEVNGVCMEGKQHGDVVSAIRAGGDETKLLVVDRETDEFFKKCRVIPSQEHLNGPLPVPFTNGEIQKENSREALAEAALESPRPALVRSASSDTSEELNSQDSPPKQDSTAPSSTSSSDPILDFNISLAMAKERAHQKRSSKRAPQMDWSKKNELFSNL

Columns and labels:
Test in all cases: log2 fold change, soluble protein after heating vs DMSO (PISA); higher = thermal stabilisation; K562 cells, 10 uM, 30 min; active = over 0.2 and 3.5 SD of the protein, either way, in both replicates (recomputed)
[1] = compound: CC1=C(C=C(C=C1)NC(=O)C2=CC(=CC=C2)C(C)(C)C#N)NC3=CC4=C(C=C3)N=CN(C4=O)C
Outline: (§1)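 Thermal stability values are relative to control samples and come from duplicates. They are expressed as log2 fold changes. For measurement, K562 cells (2×10^6 cells/mL) received 10 μM compound for 30 min, and aliquots were heated for 3 min over 48°C-58°C, pooled, and extracted at 4°C in PBS with 0.5% NP-40. Soluble protein, the supernatant after 21,000xg for 90 min, was quantified by TMTpro 16plex LC-MS/MS with equalised channel sums.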

[2] = compound: CC1=C(C=C(C=C1)NC(=O)C2=CC(=CC=C2)N(C)C)NC(=O)C3=CC=C(C=C3)O
Outline: as §1

[3] = compound: CC1=CC=C(C=C1)SC2=C3C=C(SC3=CN=C2)C(=O)N
Outline: as §1

[4] = compound: CC1=NC(=CC=C1)C2=C(N=C(N2)C(C)(C)C)C3=CC4=NC=CN=C4C=C3
Outline: as §1

Nexturastat A = compound: CCCCN(Cc1ccc(C(=O)NO)cc1)C(=O)Nc1ccccc1 [Nexturastat A]
Outline: as §1

vemurafenib = compound: CCCS(=O)(=O)Nc1ccc(F)c(C(=O)c2c[nH]c3ncc(-c4ccc(Cl)cc4)cc23)c1F [vemurafenib]
Outline: as §1

[5] = compound: CCCS(=O)(=O)Nc1ccc(F)c(C(=O)c2c[nH]c3ncc(Cl)cc23)c1F
Outline: as §1

[6] = compound: CCCc1cc(C)[nH]c(=O)c1CNC(=O)c1cc(-c2ccnc(N3CCN(C)CC3)c2)cc2c1cnn2C(C)C
Outline: as §1

givinostat = compound: CCN(CC)Cc1ccc2cc(COC(=O)Nc3ccc(C(=O)NO)cc3)ccc2c1 [givinostat]
Outline: as §1

barasertib = compound: CCN(CCCOc1ccc2c(Nc3cc(CC(=O)Nc4cccc(F)c4)[nH]n3)ncnc2c1)CCOP(=O)(O)O [barasertib]
Outline: as §1

[7] = compound: CC[C@@H]1C(=O)N(C)c2cnc(Nc3ccc(C(=O)NC4CCN(C)CC4)cc3OC)nc2N1C1CCCC1
Outline: as §1

volasertib = compound: CC[C@@H]1C(=O)N(C)c2cnc(Nc3ccc(C(=O)N[C@H]4CC[C@H](N5CCN(CC6CC6)CC5)CC4)cc3OC)nc2N1C(C)C [volasertib]
Outline: as §1

[8] = compound: CC[C@H](C)N1C=C(C2=C(C=C(C=C21)C3=CN=C(C=C3)N4CCNCC4)C(=O)NCC5=C(C=C(NC5=O)C)C)C
Outline: as §1

epoxomicin = compound: CC[C@H](C)[C@@H](C(=O)N[C@@H]([C@@H](C)O)C(=O)N[C@@H](CC(C)C)C(=O)[C@]1(CO1)C)NC(=O)[C@H]([C@@H](C)CC)N(C)C(=O)C [epoxomicin]
Outline: as §1

[9] = compound: CCn1c(C(=O)N(C2CC2)C2CC2)cc2c3c(ncn3C)c(Nc3cc(C)n(C)n3)nc21
Outline: as §1

[10] = compound: CCn1cc(-c2ccnc3[nH]c(-c4cccc(CN(C)C)c4)cc23)c(-c2ccc(NC(=O)N(C)C)cc2)n1
Outline: as §1

[11] = compound: CN(C)CC(=O)Nc1ccc2[nH]c(=O)c3ccccc3c2c1
Outline: as §1

rosiglitazone = compound: CN(CCOC1=CC=C(C=C1)C[C@H]2C(=O)NC(=O)S2)C3=CC=CC=N3 (racemic) [rosiglitazone]
Outline: as §1

[12] = compound: CN1C2=C(C3=C1C(=O)N(N=C3)CC4=CC(=CC=C4)N)SC(=C2)S(=O)C
Outline: as §1

[13] = compound: CN1CCC(CNc2ccc3ncc(-c4cccc(OC(F)(F)F)c4)n3n2)CC1
Outline: as §1

Measured: log2 fold change

SMIM8 (UniProt Q96KF7)
inactive: [1] 0.026 | [2] -0.041 | [3] 0.034 | [4] 0.108 | Nexturastat A -0.092 | vemurafenib -0.007 | [5] -0.02 | [6] -0.117 | givinostat -0.067 | barasertib 0 | [7] 0.076 | volasertib 0.013 | [8] -0.037 | epoxomicin 0.022 | [9] -0.032 | [10] -0.055 | [11] -0.049 | rosiglitazone 0.021 | [12] 0.01 | [13] 0

SMC3 (UniProt Q9UQE7)
inactive: [1] -0.008 | [2] 0.007 | [3] -0.015 | [4] 0.009 | Nexturastat A -0.036 | vemurafenib 0.008 | [5] -0.006 | [6] -0.031 | givinostat 0.066 | barasertib 0.004 | [7] -0.023 | volasertib -0.084 | [8] 0.016 | epoxomicin 0.037 | [9] -0.01 | [10] 0.001 | [11] -0.017 | rosiglitazone 0.014 | [12] -0.021 | [13] -0.074

SMPD2 (UniProt O60906)
inactive: [1] -0.052 | [2] -0.019 | [3] 0.04 | [4] -0.112 | Nexturastat A 0.063 | vemurafenib 0.042 | [5] -0.039 | [6] -0.058 | givinostat 0.033 | barasertib 0.014 | [7] 0.128 | volasertib 0.261 | [8] 0.105 | epoxomicin -0.052 | [9] 0.045 | [10] -0.053 | [11] -0.08 | rosiglitazone 0.075 | [12] -0.07 | [13] 0.043

SLC7A6OS (UniProt Q96CW6)
inactive: [1] -0.065 | [2] -0.033 | [3] -0.042 | [4] -0.075 | Nexturastat A -0.031 | vemurafenib -0.015 | [5] 0.013 | [6] -0.025 | givinostat 0.017 | barasertib 0.01 | [7] -0.027 | volasertib -0.084 | [8] -0.042 | epoxomicin 0.01 | [10] -0.038 | [11] 0.004 | [12] -0.05 | [13] 0.055

SMS (UniProt P52788)
inactive: [1] -0.022 | [2] 0.011 | [3] 0.048 | [4] 0.03 | Nexturastat A -0.105 | vemurafenib -0.033 | [5] -0.006 | [6] -0.048 | givinostat -0.042 | barasertib -0.003 | [7] 0.008 | volasertib -0.049 | [8] -0.048 | epoxomicin 0.001 | [9] 0.009 | [10] 0.006 | [11] -0.02 | rosiglitazone 0 | [12] -0.092 | [13] -0.031

SOD1 (UniProt P00441)
inactive: [1] -0.006 | [2] -0.028 | [3] 0.079 | [4] -0.134 | Nexturastat A -0.043 | vemurafenib 0.111 | [5] -0.004 | [6] -0.001 | givinostat -0.117 | barasertib 0.006 | [7] 0.05 | volasertib 0.116 | [8] 0.009 | epoxomicin -0.001 | [9] 0.018 | [10] 0.072 | [11] -0.027 | rosiglitazone 0.049 | [12] -0.004 | [13] -0.026

SMC5 (UniProt Q8IY18)
inactive: [1] -0.038 | [2] -0.067 | [3] -0.017 | [4] -0.032 | Nexturastat A -0.014 | vemurafenib 0.043 | [5] -0.033 | [6] -0.02 | givinostat -0.033 | barasertib -0.048 | [7] 0.042 | volasertib 0.054 | [8] -0.009 | epoxomicin 0.018 | [10] -0.025 | [11] 0.033 | [12] 0.005 | [13] 0.037

SLC9A3R1 (UniProt O14745)
inactive: [1] -0.03 | [2] 0.004 | [3] -0.004 | [4] 0.005 | Nexturastat A -0.01 | vemurafenib 0.003 | [5] 0.01 | [6] -0.012 | givinostat 0.011 | barasertib -0.003 | [7] -0.035 | volasertib 0.067 | [8] -0.033 | epoxomicin 0.019 | [9] 0.009 | [10] -0.01 | [11] -0.004 | rosiglitazone 0.001 | [12] -0.06 | [13] -0.035
